Assay results taken from the supplement of paper PMC10849652.
The other results are listed elsewhere or left out.

The chains behind the UniProt entries cited, without tags or fusion partners. Where a name states a change or a piece, a line headed by the entry shows the natural chain unless it says otherwise.
UniProt Q96SZ6: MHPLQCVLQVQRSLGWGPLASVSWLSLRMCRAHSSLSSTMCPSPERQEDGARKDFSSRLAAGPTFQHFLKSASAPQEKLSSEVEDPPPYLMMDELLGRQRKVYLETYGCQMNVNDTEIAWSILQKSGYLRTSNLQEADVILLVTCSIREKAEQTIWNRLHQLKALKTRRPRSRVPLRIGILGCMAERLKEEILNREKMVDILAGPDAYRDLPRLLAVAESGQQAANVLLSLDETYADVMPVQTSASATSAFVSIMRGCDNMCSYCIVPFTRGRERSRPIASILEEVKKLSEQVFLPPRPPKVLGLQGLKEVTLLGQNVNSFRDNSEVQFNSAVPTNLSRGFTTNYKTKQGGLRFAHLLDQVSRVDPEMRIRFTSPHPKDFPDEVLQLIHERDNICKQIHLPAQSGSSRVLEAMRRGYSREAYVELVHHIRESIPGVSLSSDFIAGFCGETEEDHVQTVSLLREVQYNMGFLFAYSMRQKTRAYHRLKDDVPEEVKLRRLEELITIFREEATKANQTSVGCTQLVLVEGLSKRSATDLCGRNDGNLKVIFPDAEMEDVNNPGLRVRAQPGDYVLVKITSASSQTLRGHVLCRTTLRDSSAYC
UniProt A8MTT3: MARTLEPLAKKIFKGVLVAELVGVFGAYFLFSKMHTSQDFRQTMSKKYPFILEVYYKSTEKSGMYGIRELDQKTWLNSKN
UniProt P17676: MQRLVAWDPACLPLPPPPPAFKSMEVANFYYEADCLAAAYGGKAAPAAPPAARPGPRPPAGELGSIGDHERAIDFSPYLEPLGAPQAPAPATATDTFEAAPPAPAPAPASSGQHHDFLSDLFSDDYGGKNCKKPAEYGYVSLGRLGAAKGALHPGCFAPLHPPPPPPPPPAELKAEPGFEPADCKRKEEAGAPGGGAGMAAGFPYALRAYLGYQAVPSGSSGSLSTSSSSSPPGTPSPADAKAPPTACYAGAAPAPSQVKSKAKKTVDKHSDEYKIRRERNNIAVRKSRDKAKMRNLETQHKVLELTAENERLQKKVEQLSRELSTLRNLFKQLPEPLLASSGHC
UniProt Q9BXL8: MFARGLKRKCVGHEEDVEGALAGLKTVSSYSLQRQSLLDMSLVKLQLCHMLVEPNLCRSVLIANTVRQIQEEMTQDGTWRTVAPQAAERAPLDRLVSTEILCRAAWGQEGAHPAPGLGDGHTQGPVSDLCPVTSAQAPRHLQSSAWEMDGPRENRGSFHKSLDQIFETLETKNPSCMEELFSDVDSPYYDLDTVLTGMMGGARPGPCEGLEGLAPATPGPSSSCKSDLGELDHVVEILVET
UniProt Q53HL2: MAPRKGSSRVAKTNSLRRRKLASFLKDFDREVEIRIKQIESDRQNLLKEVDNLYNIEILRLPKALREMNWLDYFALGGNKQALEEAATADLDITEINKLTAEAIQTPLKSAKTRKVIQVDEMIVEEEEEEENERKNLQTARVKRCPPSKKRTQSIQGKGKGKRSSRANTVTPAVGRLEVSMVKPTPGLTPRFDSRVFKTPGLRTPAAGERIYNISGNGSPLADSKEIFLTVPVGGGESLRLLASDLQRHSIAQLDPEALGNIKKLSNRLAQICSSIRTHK
UniProt O14613: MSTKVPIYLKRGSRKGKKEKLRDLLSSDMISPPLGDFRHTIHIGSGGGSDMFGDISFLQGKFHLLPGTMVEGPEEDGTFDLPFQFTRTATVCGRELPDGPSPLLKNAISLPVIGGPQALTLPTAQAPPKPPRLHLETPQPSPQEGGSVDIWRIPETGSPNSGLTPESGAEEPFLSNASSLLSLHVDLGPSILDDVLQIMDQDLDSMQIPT
UniProt Q99741: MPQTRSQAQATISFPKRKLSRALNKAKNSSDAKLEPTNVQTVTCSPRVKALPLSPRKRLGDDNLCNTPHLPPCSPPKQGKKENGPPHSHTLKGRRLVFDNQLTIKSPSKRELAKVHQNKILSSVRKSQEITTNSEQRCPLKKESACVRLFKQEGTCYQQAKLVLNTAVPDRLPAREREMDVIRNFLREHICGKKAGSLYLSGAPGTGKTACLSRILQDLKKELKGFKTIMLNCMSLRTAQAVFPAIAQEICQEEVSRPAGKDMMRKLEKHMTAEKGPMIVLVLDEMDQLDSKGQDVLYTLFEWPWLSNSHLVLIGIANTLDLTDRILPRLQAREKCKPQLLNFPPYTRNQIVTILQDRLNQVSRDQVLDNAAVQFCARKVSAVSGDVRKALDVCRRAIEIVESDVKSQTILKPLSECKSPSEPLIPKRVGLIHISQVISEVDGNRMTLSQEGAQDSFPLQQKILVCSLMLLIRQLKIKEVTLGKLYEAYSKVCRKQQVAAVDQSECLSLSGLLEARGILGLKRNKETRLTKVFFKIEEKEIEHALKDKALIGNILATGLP
UniProt Q5SW79: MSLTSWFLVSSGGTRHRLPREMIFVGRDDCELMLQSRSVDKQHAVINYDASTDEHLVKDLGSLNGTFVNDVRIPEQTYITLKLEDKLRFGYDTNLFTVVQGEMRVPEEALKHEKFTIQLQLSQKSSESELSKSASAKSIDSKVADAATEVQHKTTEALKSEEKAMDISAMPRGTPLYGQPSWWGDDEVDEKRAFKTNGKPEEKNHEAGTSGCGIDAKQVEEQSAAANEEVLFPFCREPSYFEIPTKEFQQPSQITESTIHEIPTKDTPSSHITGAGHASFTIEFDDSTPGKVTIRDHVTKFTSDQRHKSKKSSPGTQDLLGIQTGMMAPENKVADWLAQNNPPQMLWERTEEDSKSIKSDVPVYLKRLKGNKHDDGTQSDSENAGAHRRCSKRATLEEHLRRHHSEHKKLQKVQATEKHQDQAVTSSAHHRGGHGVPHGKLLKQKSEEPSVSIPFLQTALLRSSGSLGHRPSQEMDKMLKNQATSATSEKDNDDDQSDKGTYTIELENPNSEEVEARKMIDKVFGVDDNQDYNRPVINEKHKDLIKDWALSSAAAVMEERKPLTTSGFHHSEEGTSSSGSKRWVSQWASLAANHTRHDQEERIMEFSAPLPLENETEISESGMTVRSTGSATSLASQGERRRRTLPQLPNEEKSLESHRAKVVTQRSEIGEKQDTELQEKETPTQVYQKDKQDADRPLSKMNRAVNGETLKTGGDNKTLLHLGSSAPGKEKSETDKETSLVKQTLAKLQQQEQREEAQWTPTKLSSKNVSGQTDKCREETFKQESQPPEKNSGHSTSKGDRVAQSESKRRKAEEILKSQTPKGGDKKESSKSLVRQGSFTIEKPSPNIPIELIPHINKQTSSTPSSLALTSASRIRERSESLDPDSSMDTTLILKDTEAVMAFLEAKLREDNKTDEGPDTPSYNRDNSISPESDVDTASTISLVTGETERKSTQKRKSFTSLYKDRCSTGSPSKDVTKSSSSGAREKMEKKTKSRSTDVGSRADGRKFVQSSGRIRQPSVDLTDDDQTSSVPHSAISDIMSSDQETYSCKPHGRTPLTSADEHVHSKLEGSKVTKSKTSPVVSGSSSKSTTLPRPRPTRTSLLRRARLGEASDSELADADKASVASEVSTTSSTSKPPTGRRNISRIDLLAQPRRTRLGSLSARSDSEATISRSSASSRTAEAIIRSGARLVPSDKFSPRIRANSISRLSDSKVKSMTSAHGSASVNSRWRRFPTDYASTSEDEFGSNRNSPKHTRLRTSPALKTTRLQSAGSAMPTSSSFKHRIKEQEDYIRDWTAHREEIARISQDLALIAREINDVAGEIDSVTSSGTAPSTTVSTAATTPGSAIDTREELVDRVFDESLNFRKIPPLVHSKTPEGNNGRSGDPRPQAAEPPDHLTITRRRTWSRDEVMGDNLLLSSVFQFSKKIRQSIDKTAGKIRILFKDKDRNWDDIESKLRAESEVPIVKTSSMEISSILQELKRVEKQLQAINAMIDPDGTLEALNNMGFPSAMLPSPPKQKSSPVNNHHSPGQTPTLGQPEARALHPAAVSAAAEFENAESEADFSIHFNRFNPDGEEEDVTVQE
UniProt Q86XR8: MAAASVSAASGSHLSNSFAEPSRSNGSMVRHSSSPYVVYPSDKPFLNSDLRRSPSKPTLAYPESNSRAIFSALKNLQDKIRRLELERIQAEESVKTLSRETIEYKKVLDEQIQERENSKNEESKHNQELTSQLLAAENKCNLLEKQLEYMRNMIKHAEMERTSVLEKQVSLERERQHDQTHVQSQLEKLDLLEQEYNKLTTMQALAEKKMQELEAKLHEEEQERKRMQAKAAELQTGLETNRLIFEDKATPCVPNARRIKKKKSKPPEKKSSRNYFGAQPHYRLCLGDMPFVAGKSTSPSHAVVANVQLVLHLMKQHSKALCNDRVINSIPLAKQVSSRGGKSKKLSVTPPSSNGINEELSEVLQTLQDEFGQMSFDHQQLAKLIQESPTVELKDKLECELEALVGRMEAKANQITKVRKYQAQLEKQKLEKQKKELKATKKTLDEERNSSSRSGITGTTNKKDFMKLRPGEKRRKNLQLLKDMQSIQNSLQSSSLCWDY
UniProt Q9UIB8: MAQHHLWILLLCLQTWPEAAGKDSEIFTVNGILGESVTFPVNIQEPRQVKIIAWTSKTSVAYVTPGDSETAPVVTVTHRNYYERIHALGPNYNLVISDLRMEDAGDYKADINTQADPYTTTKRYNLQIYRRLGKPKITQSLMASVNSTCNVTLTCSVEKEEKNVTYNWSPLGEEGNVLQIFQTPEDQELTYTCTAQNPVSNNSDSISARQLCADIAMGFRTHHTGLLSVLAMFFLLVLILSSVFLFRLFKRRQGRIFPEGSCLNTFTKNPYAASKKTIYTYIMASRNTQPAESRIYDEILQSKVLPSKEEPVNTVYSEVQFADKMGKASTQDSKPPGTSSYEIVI
UniProt Q49AH0, whole entry, looked up: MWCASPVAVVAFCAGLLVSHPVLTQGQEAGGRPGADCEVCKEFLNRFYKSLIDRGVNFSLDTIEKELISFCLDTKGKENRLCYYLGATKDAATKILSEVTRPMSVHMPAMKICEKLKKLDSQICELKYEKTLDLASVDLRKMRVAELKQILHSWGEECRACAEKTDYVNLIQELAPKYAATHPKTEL

Columns and labels:
Experiment in all cases: log2 fold change, soluble protein after heating vs DMSO (PISA); higher = thermal stabilisation; K562 lysate, 10 uM; active = over 0.2 and 3.5 SD of the protein, either way, in both replicates (recomputed)
[1] = compound: CCCS(=O)(=O)Nc1ccc(F)c(C(=O)c2c[nH]c3ncc(Cl)cc23)c1F
Procedure, shortened: (§1)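 Soluble protein was defined as the supernatant remaining after 21,000xg for 90 min, following pooling of heated aliquots and adjustment to 0.5% NP-40 at 4°C. Before that, crude K562 extract at 1 mg/mL protein in PBS pH 7.4 with 1 mM MgCl2 was treated with 10 μM compound for 30 min and heated for 3 min across 48°C-58°C. Quantification used TMTpro 16plex LC-MS/MS with channel sums equalised, and values are log-two fold changes in thermal stability relative to solvent controls from duplicates.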

barasertib = compound: CCN(CCCOc1ccc2c(Nc3cc(CC(=O)Nc4cccc(F)c4)[nH]n3)ncnc2c1)CCOP(=O)(O)O [barasertib]
Procedure, shortened: as §1

volasertib = compound: CC[C@@H]1C(=O)N(C)c2cnc(Nc3ccc(C(=O)N[C@H]4CC[C@H](N5CCN(CC6CC6)CC5)CC4)cc3OC)nc2N1C(C)C [volasertib]
Procedure, shortened: as §1

[2] = compound: CCn1c(C(=O)N(C2CC2)C2CC2)cc2c3c(ncn3C)c(Nc3cc(C)n(C)n3)nc21
Procedure, shortened: as §1

[3] = compound: CCn1cc(-c2ccnc3[nH]c(-c4cccc(CN(C)C)c4)cc23)c(-c2ccc(NC(=O)N(C)C)cc2)n1
Procedure, shortened: as §1

[4] = compound: CN1CCC(CNc2ccc3ncc(-c4cccc(OC(F)(F)F)c4)n3n2)CC1
Procedure, shortened: as §1

saracatinib = compound: CN1CCN(CCOc2cc(OC3CCOCC3)c3c(Nc4c(Cl)ccc5c4OCO5)ncnc3c2)CC1 [saracatinib]
Procedure, shortened: as §1

sotrastaurin = compound: CN1CCN(c2nc(C3=C(c4c[nH]c5ccccc45)C(=O)NC3=O)c3ccccc3n2)CC1 [sotrastaurin]
Procedure, shortened: as §1

alvocidib = compound: CN1CC[C@H](c2c(O)cc(O)c3c(=O)cc(-c4ccccc4Cl)oc23)[C@H](O)C1 [alvocidib]
Procedure, shortened: as §1

Tubastatin A = compound: CN1CCc2c(c3ccccc3n2Cc2ccc(C(=O)NO)cc2)C1 [Tubastatin A]
Procedure, shortened: as §1

[5] = compound: CNC(=O)C1=CC=CC=C1NC2=NC(=NC=C2Cl)NC3=C(C=C(C=C3)N4CCOCC4)OC
Procedure, shortened: as §1

[6] = compound: CNc1nc(-c2ccc3c(N)n[nH]c3c2)cc(N2C[C@@H](C(=O)NC3CCCCC3)CC[C@H]2C)n1
Procedure, shortened: as §1

alisertib = compound: COc1cc(Nc2ncc3c(n2)-c2ccc(Cl)cc2C(c2c(F)cccc2OC)=NC3)ccc1C(=O)O [alisertib]
Procedure, shortened: as §1

[7] = compound: COc1cc2nc(-c3cc(F)ccc3O)nc(N[C@@H]3CNC[C@H]3C(C)(C)O)c2cc1OC
Procedure, shortened: as §1

gefitinib = compound: COc1cc2ncnc(Nc3ccc(F)c(Cl)c3)c2cc1OCCCN1CCOCC1 [gefitinib]
Procedure, shortened: as §1

vemurafenib = compound: CCCS(=O)(=O)Nc1ccc(F)c(C(=O)c2c[nH]c3ncc(-c4ccc(Cl)cc4)cc23)c1F [vemurafenib]
Procedure, shortened: as §1

[8] = compound: CC[C@@H]1C(=O)N(C)c2cnc(Nc3ccc(C(=O)NC4CCN(C)CC4)cc3OC)nc2N1C1CCCC1
Procedure, shortened: as §1

defactinib = compound: CNC(=O)c1ccc(Nc2ncc(C(F)(F)F)c(NCc3nccnc3N(C)S(C)(=O)=O)n2)cc1 [defactinib]
Procedure, shortened: as §1

encorafenib = compound: COC(=O)N[C@@H](C)CNc1nccc(-c2cn(C(C)C)nc2-c2cc(Cl)cc(NS(C)(=O)=O)c2F)n1 [encorafenib]
Procedure, shortened: as §1

[9] = compound: COC(=O)[C@H](CCSC)NC(=O)C1=C(C=C(C=C1)NC[C@H](CS)N)C2=CC=CC=C2
Procedure, shortened: as §1

Row | Target | log2 fold change [1] | log2 fold change (barasertib) | log2 fold change (volasertib) | log2 fold change [2] | log2 fold change [3] | log2 fold change [4] | log2 fold change (saracatinib) | log2 fold change (sotrastaurin) | log2 fold change (alvocidib) | log2 fold change (Tubastatin A) | log2 fold change [5] | log2 fold change [6] | log2 fold change (alisertib) | log2 fold change [7] | log2 fold change (gefitinib) | log2 fold change (vemurafenib) | log2 fold change [8] | log2 fold change (defactinib) | log2 fold change (encorafenib) | log2 fold change [9]
1 | CDK11A (UniProt Q9UQ88) | inactive: -0.019 | inactive: 0.029 | inactive: -0.135 | inactive: 0.047 | inactive: 0.127 | inactive: -0.099 | inactive: -0.069 | inactive: -0.026 | inactive: 0.077 | inactive: -0.172 | inactive: -0.011 | inactive: 0.023 | inactive: -0.023 | inactive: -0.037 | inactive: 0 |  |  |  |  | 
2 | CDK5RAP1 (UniProt Q96SZ6) |  | inactive: 0.025 |  | inactive: 0.035 | inactive: 0.023 | inactive: 0.026 | inactive: 0.026 | inactive: -0.037 | inactive: 0.019 | inactive: -0.023 | inactive: -0.06 | inactive: -0.024 | inactive: -0.003 |  | inactive: -0.007 | inactive: -0.03 | inactive: 0.059 | inactive: 0.018 | inactive: -0.057 | inactive: 0.029
3 | CEBPZOS (UniProt A8MTT3) | inactive: -0.026 |  | inactive: -0.007 | inactive: 0.024 | inactive: -0.176 | inactive: 0.041 | inactive: 0.03 | inactive: -0.005 | inactive: -0.063 | inactive: -0.124 | inactive: 0.015 | inactive: -0.055 | inactive: -0.064 | inactive: -0.099 | inactive: 0.006 | inactive: 0.031 | inactive: -0.048 | inactive: 0.075 | inactive: 0.064 | inactive: 0.046
4 | CEP128 (UniProt Q6ZU80) |  | inactive: 0.124 |  | inactive: 0.375 | active: -1.27 | inactive: 0.369 | inactive: 0.07 |  | inactive: -0.294 | inactive: 0.565 |  | inactive: -0.037 |  |  |  | inactive: -0.025 | inactive: -0.132 | inactive: -0.052 | inactive: 0.064 | inactive: 0.031
5 | CEBPB (UniProt P17676) |  | inactive: -0.019 |  | inactive: 0.108 | inactive: 0.119 | inactive: 0.128 | inactive: 0.025 | inactive: -0.043 | inactive: -0.064 | inactive: -0.223 | inactive: 0.155 | inactive: 0.133 |  |  |  | inactive: 0.063 | inactive: 0.055 | inactive: 0.009 | inactive: 0.101 | inactive: -0.152
6 | CEP170B (UniProt Q9Y4F5) | inactive: -0.07 |  | inactive: -0.052 |  | inactive: 0.028 | inactive: -0.105 | inactive: 0.024 | inactive: 0.026 | inactive: -0.024 |  |  | inactive: 0.132 |  | inactive: -0.099 |  | inactive: 0.029 | inactive: 0.036 | inactive: -0.005 | inactive: 0.027 | inactive: -0.068
7 | CDCA4 (UniProt Q9BXL8) |  |  |  | inactive: -0.184 |  |  | inactive: -0.171 |  |  | inactive: -0.031 |  | inactive: -0.044 |  |  |  | inactive: -0.144 |  | inactive: -0.021 |  | 
8 | CEP85L isoform 4 (UniProt Q5SZL2) |  |  |  |  |  |  |  | inactive: -0.063 |  |  | inactive: -0.138 |  |  |  |  | inactive: -0.088 |  | inactive: -0.112 |  | 
9 | CEP295 isoform 3 (UniProt Q9C0D2) | inactive: -0.058 | inactive: -0.039 | inactive: 0.043 | inactive: -0.028 | inactive: -0.387 | inactive: 0.001 |  | inactive: 0.005 | inactive: -0.039 | inactive: -0.099 | inactive: -0.029 |  | inactive: 0.018 | inactive: -0.016 | inactive: -0.041 |  | inactive: 0.052 |  | inactive: -0.154 | inactive: 0.149
10 | CDCA8 (UniProt Q53HL2) |  | inactive: 0.106 |  |  | active: 0.677 | inactive: -0.034 | inactive: 0.171 |  | inactive: 0.091 |  | inactive: 0.054 | inactive: -0.061 | inactive: 0.034 |  | inactive: 0.04 | inactive: 0.025 | inactive: 0.051 | inactive: 0.144 | inactive: 0.003 | inactive: -0.044
11 | CDC42EP2 (UniProt O14613) |  |  |  | inactive: -0.12 |  |  |  | inactive: 0.014 |  | inactive: 0.028 |  |  |  |  |  | inactive: -0.059 |  | inactive: 0.143 |  | 
12 | CENPC (UniProt Q03188) |  |  |  | inactive: 0.096 | inactive: 0.177 | inactive: 0.033 | inactive: 0.087 |  | inactive: 0 | inactive: 0.1 | inactive: 0.054 | inactive: -0.002 |  |  |  |  | inactive: 0.011 |  | inactive: -0.078 | inactive: -0.115
13 | CDC6 (UniProt Q99741) |  |  |  | inactive: 0.016 |  |  | inactive: -0.133 | inactive: -0.128 |  | inactive: -0.006 | inactive: -0.007 | inactive: -0.36 | inactive: -0.063 |  | inactive: 0.227 |  |  |  |  | 
14 | CEP170 isoform 2 (UniProt Q5SW79) |  |  |  |  | inactive: 0.126 | inactive: -0.213 | inactive: 0.11 |  | inactive: -0.07 |  |  | inactive: 0.171 |  |  |  |  | inactive: -0.06 |  | inactive: -0.08 | inactive: 0.1
15 | CEP57 (UniProt Q86XR8) |  |  |  |  | inactive: 0.009 | inactive: 0.044 |  |  | inactive: 0.118 |  | inactive: -0.299 |  |  |  |  |  | inactive: 0.129 |  | inactive: 0.16 | inactive: 0.05
16 | CD84 (UniProt Q9UIB8) |  | inactive: -0.032 |  |  | inactive: -0.153 | inactive: -0.046 |  |  | inactive: 0.042 |  |  |  |  |  |  |  |  |  |  | 
17 | CDAN1 (UniProt H3BPZ6) |  |  |  |  |  |  |  | inactive: 0.175 |  |  |  |  |  |  |  |  |  |  |  | 
18 | CDNF (UniProt Q49AH0) | inactive: 0.179 |  | inactive: 0.022 |  |  |  |  | inactive: -0.106 |  |  |  |  |  | inactive: 0 |  |  | inactive: 0.062 |  | inactive: 0.035 | inactive: -0.197

Some of the entries so far, as a markdown table:

| Row | Target | log2 fold change [1] | log2 fold change (barasertib) | log2 fold change (volasertib) | log2 fold change [2] | log2 fold change [3] | log2 fold change [4] | log2 fold change (saracatinib) | log2 fold change (sotrastaurin) | log2 fold change (alvocidib) | log2 fold change (Tubastatin A) | log2 fold change [5] | log2 fold change [6] | log2 fold change (alisertib) | log2 fold change [7] | log2 fold change (gefitinib) | log2 fold change (vemurafenib) | log2 fold change [8] | log2 fold change (defactinib) | log2 fold change (encorafenib) | log2 fold change [9] |
| --- | --- | --- | --- | --- | --- | --- | --- | --- | --- | --- | --- | --- | --- | --- | --- | --- | --- | --- | --- | --- | --- |
| 3 | CEBPZOS (UniProt A8MTT3) | inactive: -0.026 |  | inactive: -0.007 | inactive: 0.024 | inactive: -0.176 | inactive: 0.041 | inactive: 0.03 | inactive: -0.005 | inactive: -0.063 | inactive: -0.124 | inactive: 0.015 | inactive: -0.055 | inactive: -0.064 | inactive: -0.099 | inactive: 0.006 | inactive: 0.031 | inactive: -0.048 | inactive: 0.075 | inactive: 0.064 | inactive: 0.046 |
| 11 | CDC42EP2 (UniProt O14613) |  |  |  | inactive: -0.12 |  |  |  | inactive: 0.014 |  | inactive: 0.028 |  |  |  |  |  | inactive: -0.059 |  | inactive: 0.143 |  |  |
| 16 | CD84 (UniProt Q9UIB8) |  | inactive: -0.032 |  |  | inactive: -0.153 | inactive: -0.046 |  |  | inactive: 0.042 |  |  |  |  |  |  |  |  |  |  |  |
